Data source: PubChem BioAssay AID1159584 (Peter MacCallum Cancer Centre, 2016)
In all, the deposit lists about 18,000 reagents; this is an unselected part. Not stated in the record: the amount of reagent, the time to read-out.

- Test: 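Knock-downs that harm CDH1-null cells more than parental MCF10A cells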 (primary screen)
- System: human MCF10A breast epithelial cells, parental and CDH1-null
- Reagents: siRNA against human genes
- Measurement: 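Cell viability by CellTiter-Glo ATP luminescence, each line scaled to the mean of mock wells across plates, then CDH1-null over parental ratio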
- Direction: CDH1-null / parental viability ratio: higher = CDH1-null cells survive relatively better than parental; CDH1-null viability vs mock: higher = more viable CDH1-null cells; parental viability vs mock: higher = more viable parental cells

| target | CDH1-null / parental viability ratio | CDH1-null viability vs mock (fraction of mock) | parental viability vs mock (fraction of mock) |
| --- | --- | --- | --- |
| SF3B4 | 1 | 0.4 | 0.4 |
| CBARP | 1.2 | 0.84 | 0.7 |
| TTPAL | 1.1 | 0.67 | 0.61 |
| NIBAN1 | 0.97 | 0.7 | 0.72 |
| GLTP | 0.86 | 0.72 | 0.84 |
| RPL13 | 1.33 | 0.64 | 0.48 |
| SURF2 | 0.97 | 0.83 | 0.86 |
| OR6B1 | 0.73 | 0.32 | 0.44 |
| CSDC2 | 0.83 | 0.3 | 0.36 |
| CYP3A7 | 1.28 | 1.13 | 0.88 |
| TNFRSF11A | 0.86 | 0.9 | 1.05 |
| MAP1A | 1.33 | 0.56 | 0.42 |
| WNT3A | 1.19 | 1.26 | 1.06 |
| ZNF491 | 1.09 | 1.04 | 0.95 |
| ALYREF | 0.71 | 0.44 | 0.62 |
| C8orf76 | 0.84 | 0.74 | 0.88 |
| ATP5F1D | 0.86 | 0.95 | 1.1 |
| RPUSD4 | 1.13 | 0.77 | 0.68 |
| RPL10L | 1.2 | 0.48 | 0.4 |
| CHMP5 | 0.89 | 0.66 | 0.74 |
| NETO1 | 0.99 | 1.17 | 1.18 |
| CLEC18B | 0.92 | 0.74 | 0.8 |
| GABARAP | 0.99 | 0.87 | 0.88 |
| SNX7 | 1.2 | 0.98 | 0.82 |
| ANKRD46 | 0.8 | 0.52 | 0.65 |
| TMED6 | 1.26 | 1.01 | 0.8 |
| SRRD | 0.97 | 0.65 | 0.67 |
| RNF34 | 0.88 | 0.68 | 0.77 |
| NAGK | 1.12 | 0.86 | 0.77 |
| ALAS2 | 1.08 | 1 | 0.93 |
| B4GALNT4 | 0.8 | 0.74 | 0.92 |
| GBP3 | 0.97 | 0.57 | 0.59 |
| VPS54 | 0.87 | 0.35 | 0.4 |
| CABYR | 1.1 | 0.88 | 0.8 |
| FCRL1 | 0.96 | 0.79 | 0.82 |
| SUSD2 | 0.95 | 0.57 | 0.6 |
| RSRC2 | 1.14 | 0.82 | 0.72 |
| BNIP1 | 0.9 | 0.62 | 0.69 |
| ZNF268 | 1.15 | 1.02 | 0.89 |
| TNFSF12-TNFSF13 | 0.96 | 0.9 | 0.94 |
| OR10A6 | 1.26 | 1.01 | 0.8 |
| BECN1 | 0.89 | 0.8 | 0.9 |
| TSPAN17 | 1.23 | 0.74 | 0.6 |
| IRX3 | 1.31 | 0.68 | 0.52 |
| PIWIL4 | 0.92 | 0.74 | 0.8 |
| ISOC2 | 1.05 | 0.67 | 0.64 |
| GLIPR2 | 0.92 | 0.44 | 0.48 |
| PDGFRL | 1.15 | 1.08 | 0.94 |
| HLA-DMA | 0.89 | 0.64 | 0.72 |
| ACVR2B | 0.96 | 0.92 | 0.96 |
| NOL4 | 1.14 | 0.9 | 0.79 |
| PAX4 | 1.07 | 1.09 | 1.02 |
| FXR1 | 1.1 | 0.88 | 0.8 |
| LINC01559 | 0.91 | 1.18 | 1.29 |
| TRIML1 | 0.94 | 0.92 | 0.98 |
| OR7C2 | 0.7 | 0.38 | 0.54 |
| LMNTD2 | 0.87 | 0.61 | 0.7 |
| GPM6A | 1.42 | 1.19 | 0.84 |
| TERF2 | 1.3 | 0.91 | 0.7 |
| FIG4 | 1.16 | 0.88 | 0.76 |
| MIMS2 | 1.16 | 0.74 | 0.64 |
| PDRG1 | 0.89 | 0.78 | 0.88 |
| ABCC6 | 1.26 | 0.96 | 0.76 |
| RGS1 | 1.54 | 0.74 | 0.48 |
| RS1 | 1.09 | 0.87 | 0.8 |
| ABCD2 | 1.07 | 1.02 | 0.95 |
| OXNAD1 | 0.7 | 0.62 | 0.88 |
| PPID | 0.73 | 0.72 | 0.99 |
| ZFAND6 | 1 | 0.96 | 0.96 |
| TAB2 | 1.04 | 1.02 | 0.98 |
| RPS27A | 1.82 | 0.4 | 0.22 |
| STK31 | 0.91 | 0.74 | 0.81 |
| LNX2 | 0.79 | 0.45 | 0.57 |
| ZNF699 | 1.21 | 1.04 | 0.86 |
| HTR1D | 0.89 | 0.86 | 0.97 |
| RCN2 | 1 | 0.77 | 0.77 |
| KIAA1328 | 1.18 | 1.04 | 0.88 |
| RTP3 | 0.99 | 0.88 | 0.89 |
| IGSF11 | 0.71 | 0.6 | 0.84 |
| ZNF19 | 1.13 | 0.6 | 0.53 |
| RSBN1 | 0.95 | 0.8 | 0.84 |
| WRNIP1 | 1.08 | 1.1 | 1.02 |
| DCAF12L2 | 1.04 | 0.88 | 0.85 |
| GABRA5 | 1.13 | 0.77 | 0.68 |
| ZNF441 | 1.18 | 0.97 | 0.82 |
| PLCXD3 | 0.92 | 0.74 | 0.8 |
| ATOSA | 1.25 | 0.65 | 0.52 |

Records listed so far whose gene name starts with O or o (4):
| target | CDH1-null / parental viability ratio | CDH1-null viability vs mock (fraction of mock) | parental viability vs mock (fraction of mock) |
| --- | --- | --- | --- |
| OR6B1 | 0.73 | 0.32 | 0.44 |
| OR10A6 | 1.26 | 1.01 | 0.8 |
| OR7C2 | 0.7 | 0.38 | 0.54 |
| OXNAD1 | 0.7 | 0.62 | 0.88 |
